{
  "source": "patent US20090156645A1",
  "about": "“Method for Increasing the Susceptibility of Peptide Deformylase Inhibitors by Using Efflux Pump Inhibitors” (priority 2004, published 2009)",
  "test_system": "H. influenzae",
  "assay_type": "cell-based, Haemophilus influenzae",
  "description": "L-broth or L-agar (Difco) is used for routine growth of Escherichia coli (E. coli). Chocolate agar plates (Remel) are used for routine growth of H. influenzae. Brain heart infusion broth (Remel) supplemented with 10 μg/mL of β-NAD (Fluka) and 10 μg/mL hemin/vitamin K solution (sBHI) (Remel) is used for liquid broth cultivation of H. influenzae. For induction of natural competence in H. influenzae, nutritional downshift is induced using M-IV medium as described previously. See Poje and Redfield, Methods Mol Med, Vol. 71, No., pp. 57-70 (2003). Kanamycin is added to growth media at 50 μg/mL (E. coli) or 5 μg/mL (H. influenzae) as required.\nAntibiotic and substrate MICs are determined by broth microdilution using 2-fold dilution in HTM in accordance with the procedures established by the National Committee for Clinical Laboratory Standards (NCCLS). See NCCLS, Approved standard M7-A5, Wayne, Pa. (2003). PDF inhibitors are synthesized at the Novartis Institutes for BioMedical Research, Cambridge, Mass. All remaining antibiotics are obtained from Sigma (St. Louis, Mo.).",
  "note": "Read-outs that look alike come from different tables or passages of the source. For at least one compound, name, drawing or mass did not settle the structure.",
  "data": [
    {"smiles": "CN(C)[C@@H]1C(O)=C(C(N)=O)C(=O)[C@@]2(O)C(O)=C3C(=O)c4c(O)cccc4[C@@](C)(O)[C@H]3C[C@@H]12", "note": "[TET, tetracycline]", "values": [
      {"measurement": "decrease in susceptibility", "value": "not altering susceptibility"},
      {"measurement": "effect of inactivation of HI1462 on susceptibility", "value": "not affecting susceptibility"},
      {"measurement": "effect of insertional inactivation of acrB on susceptibility", "value": "not significantly affecting susceptibility"},
      {"measurement": "decrease in susceptibility", "setting": "two acrR mutants of NB65044 selected on 8 μg/mL LBM415 versus parent", "value": "no change in susceptibility"}
    ]}
  ]
}
